Source: article doi:10.1101/2022.09.26.509487
Construct, isoform or probe ends are uncertain for at least one entry. A weaker result is weaker than the reference pair of the same experiment. Tags and fusion partners may be left off the protein sequences shown.

Biological target: T1, AtWRKY40 DBD (Arabidopsis thaliana) (UniProt Q9SAH7)
T1 sequence (looked up, limits assumed): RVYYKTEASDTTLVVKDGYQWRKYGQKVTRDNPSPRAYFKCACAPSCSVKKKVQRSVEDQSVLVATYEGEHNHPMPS
Experiment: BLI

Question: Does “CGTAGGGTTAAGCTGT (double strand) [mutW-box C4T]” bind?
Answer: binds more weakly
